Reference: patent US12522827B2 (priority 2021, dated 2026)
Some results were stated once for a whole list of compounds, not compound by compound. l = locked nucleic acid (LNA); d = 2'-deoxy (DNA)

These substances were tested on SARS-CoV-2-nLuc virus.
Type: cell-based
With “+A+A+A+GTTCGTTT+A+G+A (AAAGTTCGTTTAGA; antisense; sugars from the 5' end l4 d7 l3, backbone and methylation of C not given here) [Cov 6.6]” the “inhibition of viral replication” value was ≥ 1 log 10. “+A+A+AGCAGCGCC+C+A+C (AAAGCAGCGCCCAC; antisense; LNA at 1, 2, 3, 12, 13, 14, other sugars and backbone not given here) [LNA-4706.3, miR-4706 targeted]” was tested, and the “inhibition of viral replication” value was ≥ 1 log 10. “+A+A+CATGTCTGGAC+C+T+A (AACATGTCTGGACCTA; antisense; sugars from the 5' end l3 d10 l3, backbone and methylation of C not given here) [Cov 4.1]” was tested, and the “inhibition of viral replication” value was ≥ 1 log 10. In the case of “+A+A+G+ATTGCTATG+T+G+A+G (AAGATTGCTATGTGAG; antisense; sugars from the 5' end l4 d8 l4, backbone and methylation of C not given here) [Cov 11.3]”, the “inhibition of viral replication” value is reported as ≥ 1 log 10. In the case of “+A+A+G+CCTTTTGGC+A+A+T+G (AAGCCTTTTGGCAATG; antisense; sugars from the 5' end l4 d8 l4, backbone and methylation of C not given here) [Cov 12.4]”, the “inhibition of viral replication” value is reported as ≥ 1 log 10. With “+A+A+G+GCTCTCC+A+T+C+T (AAGGCTCTCCATCT; antisense; sugars from the 5' end l4 d6 l4, backbone and methylation of C not given here) [Cov 14.2]” the “inhibition of viral replication” value was ≥ 1 log 10. “+A+A+GGCTCTCCATC+T+T+A (AAGGCTCTCCATCTTA; antisense; sugars from the 5' end l3 d10 l3, backbone and methylation of C not given here) [Cov 14.1]” was tested, and the “inhibition of viral replication” value was ≥ 1 log 10. “+A+A+T+TAATTTTAC+A+C+A+T (AATTAATTTTACACAT; antisense; sugars from the 5' end l4 d8 l4, backbone and methylation of C not given here) [Cov 13.4]” was tested, and the “inhibition of viral replication” value was ≥ 1 log 10. “+A+A+TGGGCTCCGC+C+A+G (AATGGGCTCCGCCAG; antisense; LNA at 1, 2, 3, 13, 14, 15, other sugars and backbone not given here) [LNA-4730.6, miR-4730 targeted]” was tested, and the “inhibition of viral replication” value was ≥ 1 log 10. In the case of “+A+C+ACGGACGAAA+C+C+G (ACACGGACGAAACCG; antisense; sugars from the 5' end l3 d9 l3, backbone and methylation of C not given here) [Cov 3.2-7]”, the “inhibition of viral replication” value is reported as ≥ 1 log 10. “+A+C+ATGTCTGGAC+C+T+A+T (ACATGTCTGGACCTAT; antisense; sugars from the 5' end l3 d9 l4, backbone and methylation of C not given here) [Cov 4.2]” was tested, and the “inhibition of viral replication” value was ≥ 1 log 10. With “+A+C+TCGATCGT+A+C+T+C (ACTCGATCGTACTC; antisense; sugars from the 5' end l3 d7 l4, backbone and methylation of C not given here) [Cov 10.4]” the “inhibition of viral replication” value was ≥ 1 log 10. “+A+C+TTCCTCCCC+G+C+T (ACTTCCTCCCCGCT; antisense; LNA at 1, 2, 3, 12, 13, 14, other sugars and backbone not given here) [LNA-4706.4, miR-4706 targeted]” was tested, and the “inhibition of viral replication” value was ≥ 1 log 10. In the case of “+A+G+AGAACAGATCT+A+C+A (AGAGAACAGATCTACA; antisense; sugars from the 5' end l3 d10 l3, backbone and methylation of C not given here) [Cov 6.8]”, the “inhibition of viral replication” value is reported as ≥ 1 log 10. With “+A+G+ATCTACAAG+A+G+A (AGATCTACAAGAGA; antisense; sugars from the 5' end l3 d8 l3, backbone and methylation of C not given here) [Cov 6.9]” the “inhibition of viral replication” value was ≥ 1 log 10. For “+A+G+G+AAGTTGTAG+C+A+C+G (AGGAAGTTGTAGCACG; antisense; sugars from the 5' end l4 d8 l4, backbone and methylation of C not given here) [Cov 12.8]”, the “inhibition of viral replication” value was ≥ 1 log 10. With “+A+G+GCCACGCGGA+G+T+A (AGGCCACGCGGAGTA; antisense; sugars from the 5' end l3 d9 l3, backbone and methylation of C not given here) [Neg 10.1]” the “inhibition of viral replication” value was ≥ 1 log 10. With “+A+T+G+CTGATCCCT+G+T+C (ATGCTGATCCCTGTC; antisense; sugars from the 5' end l4 d8 l3, backbone and methylation of C not given here) [LNA-6810.2, miR-6810 targeted]” the “inhibition of viral replication” value was ≥ 1 log 10. With “+A+T+T+TTACACATT+A+G+G+G (ATTTTACACATTAGGG; antisense; sugars from the 5' end l4 d8 l4, backbone and methylation of C not given here) [Cov 13.5]” the “inhibition of viral replication” value was ≥ 1 log 10. For “+C+A+A+CACTACCAC+A+T+G+A (CAACACTACCACATGA; antisense; sugars from the 5' end l4 d8 l4, backbone and methylation of C not given here) [Cov 18.5]”, the “inhibition of viral replication” value was ≥ 1 log 10. With “+C+A+CCCGGACGA+A+A+C (CACCCGGACGAAAC; antisense; sugars from the 5' end l3 d8 l3, backbone and methylation of C not given here) [Cov 8.4]” the “inhibition of viral replication” value was ≥ 1 log 10. In the case of “+C+A+CCCGGACGAA+A+C+C (CACCCGGACGAAACC; antisense; sugars from the 5' end l3 d9 l3, backbone and methylation of C not given here) [Cov 8.5]”, the “inhibition of viral replication” value is reported as ≥ 1 log 10. In the case of “+C+A+CCCGGACGAAA+C+C+T (CACCCGGACGAAACCT; antisense; sugars from the 5' end l3 d10 l3, backbone and methylation of C not given here) [Cov 8.6]”, the “inhibition of viral replication” value is reported as ≥ 1 log 10. In the case of “+C+A+G+CCAGCTCTC+C+A+A (CAGCCAGCTCTCCAA; antisense; sugars from the 5' end l4 d8 l3, backbone and methylation of C not given here) [LNA-6796.3, miR-6796 targeted]”, the “inhibition of viral replication” value is reported as ≥ 1 log 10. With “+C+A+G+GCAAACTGAG+T+T+G (CAGGCAAACTGAGTTG; antisense; sugars from the 5' end l4 d9 l3, backbone and methylation of C not given here) [Cov 7.2]” the “inhibition of viral replication” value was ≥ 1 log 10. “+C+C+ATCTCACCC+C+A+T (CCATCTCACCCCAT; antisense; sugars from the 5' end l3 d8 l3, backbone and methylation of C not given here) [LNA-6812.1, miR-6812 targeted]” was tested, and the “inhibition of viral replication” value was ≥ 1 log 10. With “+C+C+T+CCCTAATGT+T+A+C+A (CCTCCCTAATGTTACA; antisense; sugars from the 5' end l4 d8 l4, backbone and methylation of C not given here) [Cov 16.1]” the “inhibition of viral replication” value was ≥ 1 log 10. With “+C+C+TCAGCAGCAG+A+T+T+T (CCTCAGCAGCAGATTT; antisense; sugars from the 5' end l3 d9 l4, backbone and methylation of C not given here) [Cov 2.1]” the “inhibition of viral replication” value was ≥ 1 log 10. For “+C+G+GTCACACCCGG+A+C+G (CGGTCACACCCGGACG; antisense; sugars from the 5' end l3 d10 l3, backbone and methylation of C not given here) [Cov 8.2]”, the “inhibition of viral replication” value was ≥ 1 log 10. In the case of “+C+G+GTCACACCCGGA+C+G+A (CGGTCACACCCGGACGA; antisense; sugars from the 5' end l3 d11 l3, backbone and methylation of C not given here) [Cov 8.2-1]”, the “inhibition of viral replication” value is reported as ≥ 1 log 10. For “+C+G+TACCTTACC+C+G+A (CGTACCTTACCCGA; antisense; sugars from the 5' end l3 d8 l3, backbone and methylation of C not given here) [LNA-6777.4, miR-6777 targeted]”, the “inhibition of viral replication” value was ≥ 1 log 10. “+C+G+TGATATATGTG+G+T+A (CGTGATATATGTGGTA; antisense; sugars from the 5' end l3 d10 l3, backbone and methylation of C not given here) [Cov 1.2]” was tested, and the “inhibition of viral replication” value was ≥ 1 log 10. With “+C+T+A+CTAAAATTA+A+T+T (CTACTAAAATTAATT; antisense; sugars from the 5' end l4 d8 l3, backbone and methylation of C not given here) [Cov 13.1]” the “inhibition of viral replication” value was ≥ 1 log 10. “+C+T+ACAGAAGCCCC+A+T+A (CTACAGAAGCCCCATA; antisense; LNA at 1, 2, 3, 14, 15, 16, other sugars and backbone not given here) [LNA-3675.2, miR-3675 targeted]” was tested, and the “inhibition of viral replication” value was ≥ 1 log 10. For “+C+T+C+CCTAATGTT+A+C+A+G (CTCCCTAATGTTACAG; antisense; sugars from the 5' end l4 d8 l4, backbone and methylation of C not given here) [Cov 16.2]”, the “inhibition of viral replication” value was ≥ 1 log 10. With “+C+T+CCCTAATGTTA+C+A+G (CTCCCTAATGTTACAG; antisense; sugars from the 5' end l3 d10 l3, backbone and methylation of C not given here) [Cov 16.3]” the “inhibition of viral replication” value was ≥ 1 log 10. In the case of “+C+T+CCGAGCCC+C+G+C+C (CTCCGAGCCCCGCC; antisense; sugars from the 5' end l3 d7 l4, backbone and methylation of C not given here) [LNA-10396.1, miR-10396 targeted]”, the “inhibition of viral replication” value is reported as ≥ 1 log 10. For “+C+T+GCTTTTGGGAT+T+C+C (CTGCTTTTGGGATTCC; antisense; LNA at 1, 2, 3, 14, 15, 16, other sugars and backbone not given here) [LNA-19110, miR-191 targeted]”, the “inhibition of viral replication” value was ≥ 1 log 10. With “+C+T+TGAGGAAG+T+T+G+T (CTTGAGGAAGTTGT; antisense; sugars from the 5' end l3 d7 l4, backbone and methylation of C not given here) [Cov 12.7]” the “inhibition of viral replication” value was ≥ 1 log 10.
